The text below walks through data of article PMC5982827.

Protein sequences, listed by entry. Tags and fused reporters are not part of them. Lines headed by an entry give the natural chain unless they say otherwise; changes in a name come on top.
UniProt Q12341: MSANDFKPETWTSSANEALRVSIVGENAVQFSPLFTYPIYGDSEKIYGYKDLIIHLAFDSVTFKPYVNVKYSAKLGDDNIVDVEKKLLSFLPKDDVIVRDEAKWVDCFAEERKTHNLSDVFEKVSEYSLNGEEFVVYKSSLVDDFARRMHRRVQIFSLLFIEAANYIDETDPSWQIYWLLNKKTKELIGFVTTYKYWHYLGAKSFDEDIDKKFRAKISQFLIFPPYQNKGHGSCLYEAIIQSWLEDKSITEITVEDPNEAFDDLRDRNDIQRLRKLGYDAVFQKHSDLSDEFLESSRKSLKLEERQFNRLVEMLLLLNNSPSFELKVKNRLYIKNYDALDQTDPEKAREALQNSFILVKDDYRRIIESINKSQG
UniProt P32447: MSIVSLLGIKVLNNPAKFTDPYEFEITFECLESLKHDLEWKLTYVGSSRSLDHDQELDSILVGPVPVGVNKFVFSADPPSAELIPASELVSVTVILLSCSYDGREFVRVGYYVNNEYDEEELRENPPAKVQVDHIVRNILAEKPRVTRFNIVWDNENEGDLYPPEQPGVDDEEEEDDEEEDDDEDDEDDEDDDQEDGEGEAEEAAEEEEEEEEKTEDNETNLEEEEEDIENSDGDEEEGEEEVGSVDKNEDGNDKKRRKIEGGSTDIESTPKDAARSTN
UniProt Q12373: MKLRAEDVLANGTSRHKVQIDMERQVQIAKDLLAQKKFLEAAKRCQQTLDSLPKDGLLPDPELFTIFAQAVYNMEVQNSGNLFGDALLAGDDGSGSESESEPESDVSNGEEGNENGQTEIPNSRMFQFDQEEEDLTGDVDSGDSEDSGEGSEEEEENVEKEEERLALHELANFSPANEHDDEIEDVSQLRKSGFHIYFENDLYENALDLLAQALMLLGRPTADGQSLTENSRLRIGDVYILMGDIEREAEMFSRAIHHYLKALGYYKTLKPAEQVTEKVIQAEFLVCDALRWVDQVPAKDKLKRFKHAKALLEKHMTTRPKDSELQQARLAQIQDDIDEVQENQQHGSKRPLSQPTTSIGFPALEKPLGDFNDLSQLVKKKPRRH

No constants are given. Whether binding was seen depends on the method and setting. In cells and extracts the contact can be indirect. Binding can be weak; no strength is given.

Holding throughout (assay): co-IP; TAP-tagged bait (Hat1, Hat2, Asf1 or Spt2) immunoprecipitated from lysates of yeast cells carrying plasmid-borne 12MYC-Hif1 constructs; blots with anti-MYC and anti-TAP; for Asf1 also a one step co-IP with TEV protease elution (Figure 3E)
In experiment [1] the target is Hat1-TAP (S. cerevisiae) (UniProt Q12341).
Experiment [2] deals with Asf1-TAP (S. cerevisiae) (UniProt P32447).
The target in experiment [3] is T1, Hat2-TAP (S. cerevisiae) (UniProt P39984).
T1 sequence: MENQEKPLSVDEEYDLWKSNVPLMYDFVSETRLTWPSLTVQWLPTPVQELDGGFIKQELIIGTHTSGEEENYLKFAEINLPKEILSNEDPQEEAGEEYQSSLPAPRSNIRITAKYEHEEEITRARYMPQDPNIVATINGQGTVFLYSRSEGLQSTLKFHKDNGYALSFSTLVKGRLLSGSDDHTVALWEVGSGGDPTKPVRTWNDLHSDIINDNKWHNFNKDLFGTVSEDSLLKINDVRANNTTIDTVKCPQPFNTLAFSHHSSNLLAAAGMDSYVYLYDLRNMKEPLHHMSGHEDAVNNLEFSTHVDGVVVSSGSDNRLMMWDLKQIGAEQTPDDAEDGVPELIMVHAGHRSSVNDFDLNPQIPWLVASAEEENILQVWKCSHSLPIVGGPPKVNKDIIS

Take “12MYC-Hif1 C-terminal deletion mutant lacking the C-terminus including TPR4 (from UniProt Q12373) (domain or fragment)”: the binding entry in experiment [1], in experiment [2] and in experiment [3] was “binds” throughout.
For the substance “12MYC-Hif1 C-terminal deletion mutant lacking the C-terminus until TPR2 (from UniProt Q12373) (domain or fragment)”, the binding entry in experiment [1], in experiment [2] and in experiment [3] was “binds” in each case.
Turning to “12MYC-Hif1 C-terminal deletion mutant lacking the NLS (from UniProt Q12373) (domain or fragment)”, the binding entry in experiment [1], in experiment [2] and in experiment [3] was “binds” each time.
In the case of “12MYC-Hif1 C-terminal deletion mutant lacking the whole C-terminus until the TPR4 (from UniProt Q12373) (domain or fragment)”, the binding result in experiment [1], in experiment [2] and in experiment [3] was “binds” in each case.
Consider “12MYC-Hif1 internal deletion mutant lacking TPR1 (from UniProt Q12373)”, for which the binding entry in experiment [1], in experiment [2] and in experiment [3] was “binds” throughout.
In the case of “12MYC-Hif1 internal deletion mutant lacking TPR2 (from UniProt Q12373)”, the binding entry in experiment [1] and in experiment [3] was “no binding” throughout.
For “12MYC-Hif1 internal deletion mutant lacking TPR3 (from UniProt Q12373)”, the binding entry in experiment [1], in experiment [2] and in experiment [3] was “binds” each time.
With “12MYC-Hif1 internal deletion mutant lacking TPR4 (from UniProt Q12373)”, the binding entry in experiment [1], in experiment [2] and in experiment [3] was “binds” each time.
As for “12MYC-Hif1 mutant lacking only the acidic region of TPR2 (from UniProt Q12373)”, the binding result in experiment [1] and in experiment [3] was “no binding” each time.
